## Cleaved PARP in drug-treated melanoma cells

Drugs:
sunitinib: CCN(CC)CCNC(=O)c1c(C)[nH]c(/C=C2\C(=O)Nc3ccc(F)cc32)c1C at 2 µM
AZD7762: NC(=O)Nc1cc(-c2cccc(F)c2)sc1C(=O)N[C@H]1CCCNC1 at 0.1 µM
decitabine: Nc1ncn([C@H]2C[C@H](O)[C@@H](CO)O2)c(=O)n1 at 0.5 µM
cisplatin: N.N.[Cl][Pt][Cl] at 8 µM
nilotinib: Cc1cn(-c2cc(NC(=O)c3ccc(C)c(Nc4nccc(-c5cccnc5)n4)c3)cc(C(F)(F)F)c2)cn1 at 1 µM
ABT-263: CC1(C)CCC(c2ccc(Cl)cc2)=C(CN2CCN(c3ccc(C(=O)NS(=O)(=O)c4ccc(N[C@H](CCN5CCOCC5)CSc5ccccc5)c(S(=O)(=O)C(F)(F)F)c4)cc3)CC2)C1 at 2 µM
cediranib: COc1cc2c(Oc3ccc4[nH]c(C)cc4c3F)ncnc2cc1OCCCN1CCCC1 at 2 µM
PLX4720: CCCS(=O)(=O)Nc1ccc(F)c(C(=O)c2c[nH]c3ncc(Cl)cc23)c1F at 0.4 µM
SNS-314: O=C(Nc1cccc(Cl)c1)Nc1ncc(CCNc2ncnc3ccsc23)s1 at 0.004 µM

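Human melanoma cell lines in 1,536-well plates were treated with a pair of drugs for 72 h, then fixed, stained and imaged. The read-out is the fraction of cleaved-PARP-positive nuclei, in % of that fraction in the DMSO control; 200 means twice the control level of this apoptosis marker. Every drug was used at one fixed concentration, the higher of two screened. These are primary screening values without error estimates. The marker varies much from line to line, for technical or biological reasons.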
An unselected part of the screen is shown.

| Combination | RVH-421 |
|---|---|
| cediranib + decitabine | 10.9 |
| sunitinib + PLX4720 | 310 |
| ABT-263 + PLX4720 | 236 |
| cisplatin + sunitinib | 122 |
| AZD7762 + PLX4720 | 172 |
| cisplatin + AZD7762 | 133 |
| cediranib + cisplatin | 71.6 |
| cisplatin + decitabine | 79.6 |
| ABT-263 + sunitinib | 777 |
| SNS-314 + cediranib | 111 |
| AZD7762 + sunitinib | 192 |
| cediranib + AZD7762 | 111 |
| PLX4720 + nilotinib | 102 |
| decitabine + ABT-263 | 195 |
| cisplatin + nilotinib | 234 |
| decitabine + SNS-314 | 119 |
| SNS-314 + PLX4720 | 121 |
| decitabine + nilotinib | 115 |
| PLX4720 + cisplatin | 84.6 |
| AZD7762 + SNS-314 | 23.7 |
| cediranib + ABT-263 | 95.3 |
| decitabine + sunitinib | 49.3 |

The first 2 entries again:

{"combination": "cediranib + decitabine", "RVH-421": 10.9}
{"combination": "sunitinib + PLX4720", "RVH-421": 310}

Values as published with doi:10.1371/journal.pone.0140310, rounded.